Laboratory results: PubChem BioAssay AID504744 (Drosophila RNAi Screening Center, 2011)

- Test: 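Find genes whose loss alters insulin-driven dAkt phosphorylation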 (primary screen)
- Cell system: Drosophila Kc167 cells
- Reagent: long dsRNA against Drosophila genes, 250 ng dsRNA per well of a 384-well plate
- Time to read-out: 3 days of knock-down, then overnight serum-free starvation before stimulation
- Challenge: bovine insulin at 387 nM for 10 minutes after 12 h without serum
- Measurement: 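In-cell antibody fluorescence for phospho-dAkt in each well over DNA-dye signal, with log2 residuals expressed as z-scores adjusted for cell count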
- Hit rule: 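Hit in the insulin screen when the two-replicate mean z-score is more extreme than plus or minus 2.5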
In all, the deposit lists about 23,000 reagents; this is an unselected part of those that have a named target and a result. In the full data, 98 (0.43%) got an active call. 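Only hit calls are given; the phospho-dAkt signals, z-scores and hit direction were not deposited.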

Fs(2)Ket (GeneID 35336) [DRSC03328]
- outcome: inactive

obst-I (GeneID 317966) [DRSC08339]
- outcome: inactive

CG10803 (GeneID 31320) [DRSC17763]
- outcome: inactive

CG14096 (GeneID 40113) [DRSC10099]
- outcome: inactive

dor (GeneID 31118) [DRSC18765]
- outcome: inactive

CG42360 (GeneID 37937) [DRSC04224]
- outcome: active

CG5958 (GeneID 34022) [DRSC02915]
- outcome: inactive

E(Pc) (GeneID 36238) [DRSC05281]
- outcome: inactive

E(Pc) (GeneID 36238) [DRSC07408]
- outcome: inactive

Mov10 (GeneID 36922) [DRSC07012]
- outcome: inactive

CG9997 (GeneID 43395) [DRSC16591]
- outcome: inactive

CG8067 (GeneID 36552) [DRSC07065]
- outcome: inactive

Nlg4 (GeneID 42402) [DRSC15108]
- outcome: inactive

Nlg4 (GeneID 42402) [DRSC15109]
- outcome: inactive

Nlg4 (GeneID 42402) [DRSC15700]
- outcome: inactive

Nlg4 (GeneID 42402) [DRSC15701]
- outcome: inactive

Nlg4 (GeneID 42402) [DRSC22243]
- outcome: inactive

MYPT-75D (GeneID 40032) [DRSC10743]
- outcome: inactive

CG32650 (GeneID 326227) [DRSC19899]
- outcome: inactive

Mst27D (GeneID 319019) [DRSC00967]
- outcome: inactive

CNPYb (GeneID 40084) [DRSC09845]
- outcome: inactive

CG15643 (GeneID 32489) [DRSC19679]
- outcome: inactive

CG6749 (GeneID 39144) [DRSC10704]
- outcome: inactive

CG3587 (GeneID 31160) [DRSC18541]
- outcome: inactive

CG3587 (GeneID 31160) [DRSC21966]
- outcome: inactive

stretch (retired record) (GeneID 46211) [DRSC14347]
- outcome: inactive

stretch (retired record) (GeneID 46211) [DRSC14512]
- outcome: inactive

stretch (retired record) (GeneID 46211) [DRSC14541]
- outcome: inactive

stretch (retired record) (GeneID 46211) [DRSC14542]
- outcome: inactive

stretch (retired record) (GeneID 46211) [DRSC14543]
- outcome: inactive

LTV1 (GeneID 36146) [DRSC05951]
- outcome: inactive

neur (GeneID 41085) [DRSC17013]
- outcome: inactive

CR32028 (retired record) (GeneID 3772239) [DRSC22959]
- outcome: inactive

CG12224 (GeneID 41453) [DRSC14480]
- outcome: inactive

peo (GeneID 47272) [DRSC05995]
- outcome: inactive

Gr22a (GeneID 117500) [DRSC22283]
- outcome: inactive

spir (GeneID 45931) [DRSC03619]
- outcome: inactive

CG6923 (GeneID 41420) [DRSC16136]
- outcome: inactive

Cht7 (GeneID 38370) [DRSC08538]
- outcome: inactive

Cht7 (GeneID 38370) [DRSC21783]
- outcome: inactive

CG11449 (GeneID 40467) [DRSC11662]
- outcome: inactive

dpy (GeneID 318824) [DRSC00233]
- outcome: inactive

dpy (GeneID 318824) [DRSC00234]
- outcome: inactive

dpy (GeneID 318824) [DRSC00472]
- outcome: inactive

Tk (GeneID 41456) [DRSC14954]
- outcome: inactive

Tk (GeneID 41456) [DRSC21972]
- outcome: inactive

fs(1)M3 (GeneID 45994) [DRSC18381]
- outcome: inactive

CG33635 (GeneID 3772540) [DRSC00006]
- outcome: inactive

Syx13 (GeneID 39485) [DRSC09836]
- outcome: inactive

CG14830 (GeneID 38800) [DRSC08876]
- outcome: inactive

CG14830 (GeneID 38800) [DRSC10200]
- outcome: inactive

CG33346 (GeneID 2768690) [DRSC22898]
- outcome: inactive

gl (GeneID 42210) [DRSC16957]
- outcome: inactive

CG6380 (GeneID 35040) [DRSC02950]
- outcome: inactive

CG18518 (GeneID 34932) [DRSC01509]
- outcome: inactive

CG3961 (GeneID 40056) [DRSC10390]
- outcome: inactive

CG3961 (GeneID 40056) [DRSC10391]
- outcome: inactive

8 of these entries, reformatted:
gene | DRSC id | outcome
Nlg4 (GeneID 42402) | DRSC15108 | inactive
Nlg4 (GeneID 42402) | DRSC15109 | inactive
Nlg4 (GeneID 42402) | DRSC15700 | inactive
Nlg4 (GeneID 42402) | DRSC15701 | inactive
Nlg4 (GeneID 42402) | DRSC22243 | inactive
MYPT-75D (GeneID 40032) | DRSC10743 | inactive
CG32650 (GeneID 326227) | DRSC19899 | inactive
Mst27D (GeneID 319019) | DRSC00967 | inactive
